Laboratory results reported in PubChem BioAssay AID2810 (NMMLSC, 2010).
Some of the results follow. These are further read-outs of the screen, such as a control signal, another cell line or another target. No call is given for them.

Assay: modulators of CD8 T cell-vesicle binding, confirmation, cherry-picked primary hits, two concentrations (AID 2810);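 also: lower values mean blocking of vesicle binding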;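 as to percent response (vesicle binding): ratio of mean FL2 vesicle stain of CD8+ cells to that row's control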
Details: 2C CD8+ T cell-vesicle binding, flow cytometry; for double positive events: CD8+/vesicle+ events
[1] = at 15.4 µM, stronger effect = lower value

Row | Compound | double positive events (at 7.7 µM) [%] | double positive events [1] [%] | percent response (vesicle binding) (at 7.7 µM) [%]
1 | O=C1c2ccccc2NC(c2ccc(-c3ccc(F)cc3)o2)N1O (stereo not drawn) | 19.5 | 23.2 | 335
2 | CCOC(=O)c1cc(CC)sc1NC(=O)c1cc([N+](=O)[O-])ccc1N1CCOCC1 | 26.3 | 12.2 | 178
3 | O=[N+]([O-])c1cc(C(F)(F)F)ccc1NN=C1CCCC1 | 23.3 | 18.7 | 260
4 | O=C(N/N=C/c1ccc(O)c(O)c1)c1ccc(-n2cnnn2)cc1 | 16.6 | 30.6 | 112
5 | Cc1[nH]c2ccc(F)cc2c1CCNC(=O)C1CCCCC1C(=O)OCC(F)(F)F (stereo not drawn) | 15.2 | 17.1 | 462
6 | CCOC(=O)C1(Cc2cccc(Cl)c2)CCCN(C(=O)c2ccc(COC)s2)C1 (stereo not drawn) | 18.4 | 29.2 | 232
7 | C/C(=N\NC(=O)COc1ccc(C(C)(C)C)cc1)c1ccc(OC(F)F)cc1 | 14.7 | 5.6 | 298
8 | N#Cc1cccc(S(=O)(=O)NNC(=O)C23CC4CC(CC(C4)C2)C3)c1 | 8.4 | 16.5 | 300
9 | O=C(NC1c2ccccc2-c2ccccc21)N1CCOCC1 | 12.7 | 15.2 | 367
10 | CCOC(=O)C(NC(=O)Nc1ccc(F)cc1F)(Oc1ccccc1)C(F)(F)F (stereo not drawn) | 19.3 | 15.2 | 187
11 | N#Cc1nc(Cc2cccc3ccccc23)oc1NCCN1CCOCC1 | 33.7 | 8.8 | 369
12 | CSC1=NCCN1C(=O)Cc1ccc(F)cc1 | 11.4 | 27 | 161
13 | Cc1c(C)c2c(OCC(=O)NCC(O)c3ccccc3)cc3c(c2oc1=O)CCC(C)(C)O3 (stereo not drawn) | 18.8 | 2.1 | 284
14 | O=C(Nc1nccs1)c1cc(-c2ccccc2)nc2ccccc12 | 12.3 | 26.9 | 91.5
15 | O=C(COC(=O)CCC(=O)c1ccc(F)cc1)NC1CCCCC1 | 35.4 | 23.8 | 250
16 | CCOC(=O)Nc1sc(C)c(C)c1C(N)=O | 25.8 | 3.2 | 322
17 | N=C1/C(=C/c2cccn2-c2ccc([N+](=O)[O-])cc2)C(=O)N=C2SC=CN12 | 30.1 | 15 | 63.6
18 | COc1ccc2[nH]c3c(c2c1)CCn1c-3nc2ccccc2c1=O | 17.9 | 19.2 | 115
19 | Cc1cc(C)n(C(=O)c2sc3cc(F)ccc3c2Cl)n1 | 26.6 | 13 | 327
20 | O=C(CN1CCCCC1)N1CCCc2c1c(=O)oc1ccc(OCc3ccccc3)cc21 | 14.9 | 5.5 | 123
21 | COc1ccc2c(CC(=O)OCC(=O)Nc3ccc(C)cc3)coc2c1 | 42.6 | 25.4 | 198
22 | Cc1cc2c(cc1S(=O)(=O)NCCc1ccccc1)NC(=O)CO2 | 20.7 | 23.9 | 187
23 | CC(Sc1ncnc2sccc12)C(=O)Nc1ccc(S(N)(=O)=O)cc1 (stereo not drawn) | 13.6 | 18.4 | 119
24 | COc1cccc(OC)c1-c1nnc(-c2cn(C)c3ccccc23)o1 | 14.9 | 12.7 | 97.9
25 | Cc1c(Cl)cccc1NC(=O)COC(=O)CCc1nc2ccccc2n1-c1ccccc1 | 21.4 | 20.6 | 296
26 | COc1ccc(NC(=O)NC(C)c2ccc3c(c2)OCO3)c(OC)c1 (stereo not drawn) | 16.4 | 30 | 118

Row | Compound | double positive events (at 7.7 µM) [%] | double positive events [1] [%] | percent response (vesicle binding) (at 7.7 µM) [%]
27 | Clc1ccccc1OCc1nc(-c2ccncc2)no1 | 26.5 | 11.9 | 244
28 | O=C(NNS(=O)(=O)c1ccc2ccccc2c1)c1cccs1 | 18.2 | 8.6 | 151
29 | CCOC(=O)CNC(=O)CSc1nc2cccnc2n1Cc1ccccc1 | 31 | 14.7 | 210
30 | CC(=O)c1c(O)c2ccccc2n(Cc2ccccc2)c1=O | 19.4 | 19.1 | 157
31 | CCOc1ccc(S(=O)(=O)NCCC(=O)NCC(c2ccc(OC)cc2)N2CCCC2)cc1 (stereo not drawn) | 8.3 | 14.7 | 241
32 | C=CCn1c(SCC(=O)Nc2cc(C)on2)nc2sc3c(c2c1=O)CCCC3 | 7.4 | 11.7 | 136
33 | c1ccc(COc2ccc(OCCN3CCCCC3)cc2)cc1 | 9.6 | 3.6 | 377
34 | COc1cccc(N2CCN(CC(=O)Nc3nnc(-c4ccccc4)s3)CC2)c1 | 36.3 | 12.1 | 292
35 | CSc1ncc(CN2CCCCC2C(=O)Nc2ccc(Oc3ccccc3)nc2)cn1 (stereo not drawn) | 12.4 | 25.9 | 155
36 | CN1CCN(S(=O)(=O)c2cccc(C(=O)Nc3cc(C(F)(F)F)ccc3N3CCCCC3)c2)CC1 | 9.6 | 29 | 176
37 | O=C(COC(=O)c1ccccc1Nc1ccc(SC(F)F)cc1)NCc1ccco1 | 30.1 | 21.5 | 246
38 | CCOC(=O)N1CCC(=NNc2ncc(C(F)(F)F)cc2Cl)CC1 | 25.9 | 13.4 | 205
39 | COc1ccc(S(=O)(=O)N2CCc3ccccc32)cc1C(=O)NCCc1ccccn1 | 8.3 | 18.6 | 330
40 | COc1ccc(C2CC(=O)c3cnc(NC(=O)c4cc(OC)cc(OC)c4)nc3C2)cc1 (stereo not drawn) | 11.9 | 30.9 | 269
41 | COc1ccc(N2CC(C(=O)N[C@@H](C)C(=O)NCc3ccccc3OC)CC2=O)cc1 (stereo partly drawn) | 38.4 | 4.5 | 323
42 | Cc1c(C(=O)c2no[n+]([O-])c2C(=O)c2cnn(C)c2C)cnn1C | 31.8 | 8.5 | 264
43 | C/C(CCC(=O)OC[C@H]1O[C@H](C#Cc2ccccc2)C=C[C@@H]1Oc1ccc(C)cc1)=N\OC[C@@H](O)[C@H]1O[C@@H]2OC(C)(C)O[C@@H]2[C@H]1O | 12.9 | 12.7 | 104
44 | Cc1cccc(NC(=O)CN2C(=O)N/C(=C\c3ccc(N4CCOCC4)cc3)C2=O)c1 | 39.3 | 21.3 | 288
45 | O=C(CCc1ccccc1)NC1(Cc2ccccc2)CCN(CCCc2ccccc2)C1=O (stereo not drawn) | 32.8 | 7.1 | 253
46 | O=C(Cc1ccc(Cl)cc1)SCc1ccccc1 | 9.7 | 27.6 | 104
47 | CCN(CC(=O)NCCc1ccccc1)S(=O)(=O)c1ccccc1 | 28.6 | 15.6 | 234
48 | Cc1ccccc1C(=O)NCC(=O)N1CCN(C/C=C/c2ccccc2)CC1 | 28.3 | 4.9 | 115
49 | C=CCN1C(=O)NC2(O)C(=O)c3ccccc3C12O (stereo not drawn) | 8.9 | 12.1 | 203
50 | COc1ccc(N2C(=O)CC(Sc3ncn[nH]3)C2=O)c(OC)c1 (stereo not drawn) | 2.2 | 4.2 | 89.2
51 | CN(C)S(=O)(=O)c1ccc(C(=O)NCCc2ccco2)cc1 | 24.2 | 5.1 | 197

Grouped by structure: the compounds so far with two or more sulfur atoms (3)
Row | Compound | double positive events (at 7.7 µM) [%] | double positive events [1] [%] | percent response (vesicle binding) (at 7.7 µM) [%]
23 | CC(Sc1ncnc2sccc12)C(=O)Nc1ccc(S(N)(=O)=O)cc1 (stereo not drawn) | 13.6 | 18.4 | 119
28 | O=C(NNS(=O)(=O)c1ccc2ccccc2c1)c1cccs1 | 18.2 | 8.6 | 151
32 | C=CCn1c(SCC(=O)Nc2cc(C)on2)nc2sc3c(c2c1=O)CCCC3 | 7.4 | 11.7 | 136
